These are yes or no findings as the source states them, for the method shown. In cells and extracts the contact can be indirect. These calls come from enrichment with a bait or labelling near it, and not all partners need be listed.
Target: Flag-tagged SF3B1 (full-length) (human) (UniProt O75533)
Assay: affinity purification with mass spectrometry; Flag-SF3B1 expressed in HEK293F; cleared lysate on anti-Flag M2 affinity gel, 2 h, 4 °C; lysis buffer 20 mM HEPES-KOH pH 7.9, 150 mM NaCl, 1.5 mM MgCl2, 0.05% NP-40; eluted with FLAG peptide, trypsin digest, mass spectrometry

The chains behind the UniProt entries cited, without tags or fusion partners.
UniProt O75533: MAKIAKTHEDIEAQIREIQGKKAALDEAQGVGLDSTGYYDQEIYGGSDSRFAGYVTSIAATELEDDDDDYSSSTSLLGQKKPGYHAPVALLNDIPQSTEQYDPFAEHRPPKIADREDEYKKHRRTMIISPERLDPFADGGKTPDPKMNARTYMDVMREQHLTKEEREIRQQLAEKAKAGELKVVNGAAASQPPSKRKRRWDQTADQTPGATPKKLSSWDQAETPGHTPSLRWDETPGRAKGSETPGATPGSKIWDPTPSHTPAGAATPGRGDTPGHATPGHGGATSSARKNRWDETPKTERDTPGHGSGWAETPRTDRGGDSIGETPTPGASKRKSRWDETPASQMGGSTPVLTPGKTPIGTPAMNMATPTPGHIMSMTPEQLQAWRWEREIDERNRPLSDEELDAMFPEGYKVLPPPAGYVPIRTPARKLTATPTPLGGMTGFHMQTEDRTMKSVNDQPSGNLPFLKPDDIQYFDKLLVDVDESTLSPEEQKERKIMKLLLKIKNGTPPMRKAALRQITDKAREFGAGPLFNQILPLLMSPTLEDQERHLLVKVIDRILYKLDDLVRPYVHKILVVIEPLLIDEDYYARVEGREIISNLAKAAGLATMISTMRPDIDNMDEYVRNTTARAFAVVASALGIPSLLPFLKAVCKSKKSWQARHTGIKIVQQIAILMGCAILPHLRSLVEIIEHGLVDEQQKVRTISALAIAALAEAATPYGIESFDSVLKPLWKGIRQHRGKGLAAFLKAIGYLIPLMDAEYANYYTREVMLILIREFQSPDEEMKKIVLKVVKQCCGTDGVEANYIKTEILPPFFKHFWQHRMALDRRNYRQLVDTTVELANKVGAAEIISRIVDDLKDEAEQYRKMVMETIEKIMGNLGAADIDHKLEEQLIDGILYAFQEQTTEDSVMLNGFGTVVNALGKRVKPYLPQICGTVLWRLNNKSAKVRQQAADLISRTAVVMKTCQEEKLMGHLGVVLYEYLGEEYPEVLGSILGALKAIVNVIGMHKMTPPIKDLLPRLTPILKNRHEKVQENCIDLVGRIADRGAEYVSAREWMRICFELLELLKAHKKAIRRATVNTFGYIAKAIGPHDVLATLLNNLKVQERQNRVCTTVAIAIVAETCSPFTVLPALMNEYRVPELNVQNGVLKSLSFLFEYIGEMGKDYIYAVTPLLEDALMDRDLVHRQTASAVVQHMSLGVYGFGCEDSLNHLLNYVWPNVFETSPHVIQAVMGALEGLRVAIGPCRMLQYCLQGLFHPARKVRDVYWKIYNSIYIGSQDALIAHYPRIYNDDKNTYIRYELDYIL

B1: DDX42 (endogenous, HEK293F) (protein, UniProt Q86XP3 1-938)
chain: MNWNKGGPGTKRGFGFGGFAISAGKKEEPKLPQQSHSAFGATSSSSGFGKSAPPQLPSFYKIGSKRANFDEENAYFEDEEEDSSNVDLPYIPAENSPTRQQFHSKPVDSDSDDDPLEAFMAEVEDQAARDMKRLEEKDKERKNVKGIRDDIEEEDDQEAYFRYMAENPTAGVVQEEEEDNLEYDSDGNPIAPTKKIIDPLPPIDHSEIDYPPFEKNFYNEHEEITNLTPQQLIDLRHKLNLRVSGAAPPRPGSSFAHFGFDEQLMHQIRKSEYTQPTPIQCQGVPVALSGRDMIGIAKTGSGKTAAFIWPMLIHIMDQKELEPGDGPIAVIVCPTRELCQQIHAECKRFGKAYNLRSVAVYGGGSMWEQAKALQEGAEIVVCTPGRLIDHVKKKATNLQRVSYLVFDEADRMFDMGFEYQVRSIASHVRPDRQTLLFSATFRKKIEKLARDILIDPIRVVQGDIGEANEDVTQIVEILHSGPSKWNWLTRRLVEFTSSGSVLLFVTKKANAEELANNLKQEGHNLGLLHGDMDQSERNKVISDFKKKDIPVLVATDVAARGLDIPSIKTVINYDVARDIDTHTHRIGRTGRAGEKGVAYTLLTPKDSNFAGDLVRNLEGANQHVSKELLDLAMQNAWFRKSRFKGGKGKKLNIGGGGLGYRERPGLGSENMDRGNNNVMSNYEAYKPSTGAMGDRLTAMKAAFQSQYKSHFVAASLSNQKAGSSAAGASGWTSAGSLNSVPTNSAQQGHNSPDSPVTSAAKGIPGFGNTGNISGAPVTYPSAGAQGVNNTASGNNSREGTGGSNGKRERYTENRGSSRHSHGETGNRHSDSPRHGDGGRHGDGYRHPESSSRHTDGHRHGENRHGGSAGRHGENRGANDGRNGESRKEAFNRESKMEPKMEPKVDSSKMDKVDSKTDKTADGFAVPEPPKRKKSRWDS
binding: binds

B2: DDX46 (endogenous, HEK293F) (protein, UniProt Q7L014 1-1031)
chain: MGRESRHYRKRSASRGRSGSRSRSRSPSDKRSKRGDDRRSRSRDRDRRRERSRSRDKRRSRSRDRKRLRRSRSRERDRSRERRRSRSRDRRRSRSRSRGRRSRSSSPGNKSKKTENRSRSKEKTDGGESSKEKKKDKDDKEDEKEKDAGNFDQNKLEEEMRKRKERVEKWREEQRKKAMENIGELKKEIEEMKQGKKWSLEDDDDDEDDPAEAEKEGNEMEGEELDPLDAYMEEVKEEVKKFNMRSVKGGGGNEKKSGPTVTKVVTVVTTKKAVVDSDKKKGELMENDQDAMEYSSEEEEVDLQTALTGYQTKQRKLLEPVDHGKIEYEPFRKNFYVEVPELAKMSQEEVNVFRLEMEGITVKGKGCPKPIKSWVQCGISMKILNSLKKHGYEKPTPIQTQAIPAIMSGRDLIGIAKTGSGKTIAFLLPMFRHIMDQRSLEEGEGPIAVIMTPTRELALQITKECKKFSKTLGLRVVCVYGGTGISEQIAELKRGAEIIVCTPGRMIDMLAANSGRVTNLRRVTYVVLDEADRMFDMGFEPQVMRIVDNVRPDRQTVMFSATFPRAMEALARRILSKPIEVQVGGRSVVCSDVEQQVIVIEEEKKFLKLLELLGHYQESGSVIIFVDKQEHADGLLKDLMRASYPCMSLHGGIDQYDRDSIINDFKNGTCKLLVATSVAARGLDVKHLILVVNYSCPNHYEDYVHRAGRTGRAGNKGYAYTFITEDQARYAGDIIKALELSGTAVPPDLEKLWSDFKDQQKAEGKIIKKSSGFSGKGFKFDETEQALANERKKLQKAALGLQDSDDEDAAVDIDEQIESMFNSKKRVKDMAAPGTSSVPAPTAGNAEKLEIAKRLALRINAQKNLGIESQDVMQQATNAILRGGTILAPTVSAKTIAEQLAEKINAKLNYVPLEKQEEERQDGGQNESFKRYEEELEINDFPQTARWKVTSKEALQRISEYSEAAITIRGTYFPPGKEPKEGERKIYLAIESANELAVQKAKAEITRLIKEELIRLQNSYQPTNKGRYKVL
binding: binds

From publication PMC9935549
